This is one part of the list.
Experiments:
Assay in all cases: log2 fold change, soluble protein after heating vs DMSO (PISA); higher = thermal stabilisation; K562 cells, 10 uM, 30 min; active = over 0.2 and 3.5 SD of the protein, either way, in both replicates (recomputed)
[1] = compound: CS(=O)(=O)c1ccc(-c2cnc(N)c(C(=O)Nc3ccccc3)n2)cc1
Outline: (§1)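 For each measurement, 10 μM compound was applied for 30 min to K562 cells at 2×10^6 cells/mL. Aliquots were heated for 3 min across 48°C-58°C, pooled, and extracted in PBS with 0.5% NP-40 at 4°C; the supernatant after 21,000xg for 90 min was soluble protein. This was quantified by TMTpro 16plex LC-MS/MS with channel sums equalised, and thermal stability was reported relative to control samples from duplicates, on a log2 fold-change scale.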

Sequences of proteins named here, by UniProt entry; tags and fusion partners are left off. A change or cut given only in a name is not applied to a line headed by its entry.
UniProt Q5BJF6: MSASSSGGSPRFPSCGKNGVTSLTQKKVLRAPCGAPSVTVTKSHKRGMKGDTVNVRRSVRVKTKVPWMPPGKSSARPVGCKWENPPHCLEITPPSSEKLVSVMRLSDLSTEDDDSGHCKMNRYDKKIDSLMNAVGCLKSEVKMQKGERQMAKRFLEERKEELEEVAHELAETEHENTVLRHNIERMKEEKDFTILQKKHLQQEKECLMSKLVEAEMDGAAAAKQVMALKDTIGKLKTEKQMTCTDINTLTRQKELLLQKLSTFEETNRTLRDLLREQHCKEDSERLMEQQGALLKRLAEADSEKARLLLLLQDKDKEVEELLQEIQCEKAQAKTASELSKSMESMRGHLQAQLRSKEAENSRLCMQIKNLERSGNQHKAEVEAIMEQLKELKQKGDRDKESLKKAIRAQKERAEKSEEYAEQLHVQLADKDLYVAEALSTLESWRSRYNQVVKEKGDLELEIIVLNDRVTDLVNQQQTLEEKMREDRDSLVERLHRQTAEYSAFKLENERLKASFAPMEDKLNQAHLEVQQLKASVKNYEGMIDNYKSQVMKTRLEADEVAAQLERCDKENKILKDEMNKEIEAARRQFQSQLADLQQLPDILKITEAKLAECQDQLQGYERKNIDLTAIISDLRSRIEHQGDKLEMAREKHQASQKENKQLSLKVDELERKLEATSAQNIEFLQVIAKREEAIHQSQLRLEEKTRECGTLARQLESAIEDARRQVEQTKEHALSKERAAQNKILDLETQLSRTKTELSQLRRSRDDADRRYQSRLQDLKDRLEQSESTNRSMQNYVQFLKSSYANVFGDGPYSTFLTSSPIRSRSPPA
UniProt P49757: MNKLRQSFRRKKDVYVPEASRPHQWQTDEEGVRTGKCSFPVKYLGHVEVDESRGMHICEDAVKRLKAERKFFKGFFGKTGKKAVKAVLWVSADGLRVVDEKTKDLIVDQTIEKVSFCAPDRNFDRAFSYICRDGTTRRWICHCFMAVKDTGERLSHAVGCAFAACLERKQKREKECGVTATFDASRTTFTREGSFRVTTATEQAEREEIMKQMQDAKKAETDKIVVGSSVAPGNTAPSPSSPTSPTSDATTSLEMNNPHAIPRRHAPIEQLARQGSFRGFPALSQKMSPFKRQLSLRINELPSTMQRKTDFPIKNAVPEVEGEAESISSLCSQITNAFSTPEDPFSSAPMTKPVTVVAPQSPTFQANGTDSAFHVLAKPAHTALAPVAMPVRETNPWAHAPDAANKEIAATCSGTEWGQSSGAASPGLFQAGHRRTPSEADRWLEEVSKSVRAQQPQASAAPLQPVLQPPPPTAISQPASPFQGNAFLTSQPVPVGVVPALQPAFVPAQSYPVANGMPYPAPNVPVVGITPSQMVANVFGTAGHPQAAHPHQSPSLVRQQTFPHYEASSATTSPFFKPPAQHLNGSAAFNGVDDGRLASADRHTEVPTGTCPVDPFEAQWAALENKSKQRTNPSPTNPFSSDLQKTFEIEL
UniProt Q8WV74: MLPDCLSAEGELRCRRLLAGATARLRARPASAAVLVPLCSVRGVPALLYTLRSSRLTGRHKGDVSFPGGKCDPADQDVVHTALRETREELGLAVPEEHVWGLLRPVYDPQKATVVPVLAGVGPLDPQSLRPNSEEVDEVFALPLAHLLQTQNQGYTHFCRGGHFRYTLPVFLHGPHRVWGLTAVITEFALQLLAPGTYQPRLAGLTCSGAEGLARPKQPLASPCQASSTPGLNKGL
UniProt Q9H4B0: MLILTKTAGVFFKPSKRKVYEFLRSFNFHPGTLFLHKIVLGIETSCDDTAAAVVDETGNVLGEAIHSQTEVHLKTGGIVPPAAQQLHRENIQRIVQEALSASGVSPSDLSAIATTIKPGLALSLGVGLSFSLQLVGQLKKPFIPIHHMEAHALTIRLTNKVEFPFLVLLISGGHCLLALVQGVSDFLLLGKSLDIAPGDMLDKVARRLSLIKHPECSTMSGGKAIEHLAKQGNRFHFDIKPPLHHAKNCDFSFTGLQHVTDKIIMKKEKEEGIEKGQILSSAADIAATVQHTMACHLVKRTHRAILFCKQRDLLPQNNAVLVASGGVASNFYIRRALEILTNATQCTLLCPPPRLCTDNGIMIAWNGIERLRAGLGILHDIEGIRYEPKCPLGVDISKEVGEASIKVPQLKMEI
UniProt Q9BW27: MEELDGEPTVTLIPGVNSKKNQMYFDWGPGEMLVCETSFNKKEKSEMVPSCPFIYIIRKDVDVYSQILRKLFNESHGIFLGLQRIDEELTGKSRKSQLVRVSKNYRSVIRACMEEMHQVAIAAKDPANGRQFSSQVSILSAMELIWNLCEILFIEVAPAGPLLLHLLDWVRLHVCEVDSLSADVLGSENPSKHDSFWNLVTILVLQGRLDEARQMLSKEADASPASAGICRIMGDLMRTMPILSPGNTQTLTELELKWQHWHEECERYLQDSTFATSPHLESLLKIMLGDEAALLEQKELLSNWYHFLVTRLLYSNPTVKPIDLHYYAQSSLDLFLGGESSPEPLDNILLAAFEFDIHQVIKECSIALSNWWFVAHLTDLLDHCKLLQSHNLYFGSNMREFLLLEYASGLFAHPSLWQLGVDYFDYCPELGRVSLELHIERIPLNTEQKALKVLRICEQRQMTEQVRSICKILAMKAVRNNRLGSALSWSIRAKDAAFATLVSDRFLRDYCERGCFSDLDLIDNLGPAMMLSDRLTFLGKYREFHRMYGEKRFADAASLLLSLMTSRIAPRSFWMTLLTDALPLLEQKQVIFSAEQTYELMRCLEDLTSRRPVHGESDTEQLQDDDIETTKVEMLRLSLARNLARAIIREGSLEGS
UniProt Q9Y5N6: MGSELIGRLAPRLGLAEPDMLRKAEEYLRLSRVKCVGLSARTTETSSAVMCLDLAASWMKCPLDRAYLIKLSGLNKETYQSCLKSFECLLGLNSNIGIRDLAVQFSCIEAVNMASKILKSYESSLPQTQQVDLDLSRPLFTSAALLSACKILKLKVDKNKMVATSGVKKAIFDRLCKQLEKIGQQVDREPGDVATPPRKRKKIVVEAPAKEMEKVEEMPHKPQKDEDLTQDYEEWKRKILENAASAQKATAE
UniProt Q96D31, whole entry, looked up: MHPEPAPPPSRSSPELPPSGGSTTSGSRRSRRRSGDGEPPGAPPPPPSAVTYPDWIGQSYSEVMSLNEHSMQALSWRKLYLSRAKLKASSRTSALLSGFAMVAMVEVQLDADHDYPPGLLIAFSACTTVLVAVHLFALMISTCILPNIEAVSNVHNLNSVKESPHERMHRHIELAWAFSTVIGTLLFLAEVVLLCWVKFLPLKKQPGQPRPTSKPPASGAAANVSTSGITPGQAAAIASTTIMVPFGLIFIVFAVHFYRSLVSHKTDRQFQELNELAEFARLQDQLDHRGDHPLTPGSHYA
UniProt Q9H1P3, whole entry, looked up: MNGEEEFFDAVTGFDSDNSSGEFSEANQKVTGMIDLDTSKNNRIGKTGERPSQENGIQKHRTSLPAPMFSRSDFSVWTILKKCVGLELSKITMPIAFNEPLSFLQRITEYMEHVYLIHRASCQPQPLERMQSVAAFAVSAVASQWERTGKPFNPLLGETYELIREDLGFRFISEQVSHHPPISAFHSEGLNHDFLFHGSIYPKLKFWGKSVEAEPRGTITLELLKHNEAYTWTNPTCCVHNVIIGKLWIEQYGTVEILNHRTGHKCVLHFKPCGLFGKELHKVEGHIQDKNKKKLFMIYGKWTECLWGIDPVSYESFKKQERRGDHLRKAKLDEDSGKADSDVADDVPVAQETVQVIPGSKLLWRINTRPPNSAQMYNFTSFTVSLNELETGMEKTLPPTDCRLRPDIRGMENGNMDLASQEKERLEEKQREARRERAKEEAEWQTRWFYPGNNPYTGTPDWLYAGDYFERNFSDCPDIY
UniProt P0C025: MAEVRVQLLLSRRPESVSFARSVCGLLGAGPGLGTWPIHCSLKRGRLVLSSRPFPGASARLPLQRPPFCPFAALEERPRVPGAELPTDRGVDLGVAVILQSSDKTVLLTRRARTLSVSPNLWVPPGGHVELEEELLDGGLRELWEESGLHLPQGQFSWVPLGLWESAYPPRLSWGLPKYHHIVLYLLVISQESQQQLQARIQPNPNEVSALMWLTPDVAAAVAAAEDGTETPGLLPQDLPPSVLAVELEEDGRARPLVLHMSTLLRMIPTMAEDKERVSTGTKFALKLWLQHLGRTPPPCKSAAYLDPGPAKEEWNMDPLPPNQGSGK
UniProt Q13416: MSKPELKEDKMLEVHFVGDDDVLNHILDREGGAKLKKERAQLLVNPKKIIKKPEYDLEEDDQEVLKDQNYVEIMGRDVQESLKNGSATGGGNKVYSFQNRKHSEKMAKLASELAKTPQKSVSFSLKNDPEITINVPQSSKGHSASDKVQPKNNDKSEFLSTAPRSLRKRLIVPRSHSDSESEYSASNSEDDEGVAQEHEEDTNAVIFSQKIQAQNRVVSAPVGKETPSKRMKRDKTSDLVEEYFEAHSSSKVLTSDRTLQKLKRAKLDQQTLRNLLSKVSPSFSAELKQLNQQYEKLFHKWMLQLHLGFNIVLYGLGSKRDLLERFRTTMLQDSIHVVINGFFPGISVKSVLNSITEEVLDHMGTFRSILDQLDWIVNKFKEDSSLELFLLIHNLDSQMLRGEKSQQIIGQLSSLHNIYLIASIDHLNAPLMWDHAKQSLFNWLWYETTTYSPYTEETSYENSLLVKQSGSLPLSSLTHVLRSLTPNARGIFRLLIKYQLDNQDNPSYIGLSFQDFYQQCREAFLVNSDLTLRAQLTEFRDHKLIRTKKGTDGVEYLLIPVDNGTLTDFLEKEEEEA
UniProt Q9BZD4: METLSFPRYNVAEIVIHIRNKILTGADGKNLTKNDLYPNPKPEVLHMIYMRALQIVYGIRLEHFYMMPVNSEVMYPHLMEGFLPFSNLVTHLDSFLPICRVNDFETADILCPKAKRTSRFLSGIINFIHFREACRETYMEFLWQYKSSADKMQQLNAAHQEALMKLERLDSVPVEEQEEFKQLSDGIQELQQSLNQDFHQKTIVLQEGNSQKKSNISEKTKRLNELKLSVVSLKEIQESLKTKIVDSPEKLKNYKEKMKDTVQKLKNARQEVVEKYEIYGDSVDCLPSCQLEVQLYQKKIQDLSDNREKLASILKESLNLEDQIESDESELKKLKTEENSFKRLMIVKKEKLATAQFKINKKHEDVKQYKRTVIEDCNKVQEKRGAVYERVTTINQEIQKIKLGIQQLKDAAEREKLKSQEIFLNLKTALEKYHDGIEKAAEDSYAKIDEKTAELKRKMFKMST
UniProt Q8IVL6: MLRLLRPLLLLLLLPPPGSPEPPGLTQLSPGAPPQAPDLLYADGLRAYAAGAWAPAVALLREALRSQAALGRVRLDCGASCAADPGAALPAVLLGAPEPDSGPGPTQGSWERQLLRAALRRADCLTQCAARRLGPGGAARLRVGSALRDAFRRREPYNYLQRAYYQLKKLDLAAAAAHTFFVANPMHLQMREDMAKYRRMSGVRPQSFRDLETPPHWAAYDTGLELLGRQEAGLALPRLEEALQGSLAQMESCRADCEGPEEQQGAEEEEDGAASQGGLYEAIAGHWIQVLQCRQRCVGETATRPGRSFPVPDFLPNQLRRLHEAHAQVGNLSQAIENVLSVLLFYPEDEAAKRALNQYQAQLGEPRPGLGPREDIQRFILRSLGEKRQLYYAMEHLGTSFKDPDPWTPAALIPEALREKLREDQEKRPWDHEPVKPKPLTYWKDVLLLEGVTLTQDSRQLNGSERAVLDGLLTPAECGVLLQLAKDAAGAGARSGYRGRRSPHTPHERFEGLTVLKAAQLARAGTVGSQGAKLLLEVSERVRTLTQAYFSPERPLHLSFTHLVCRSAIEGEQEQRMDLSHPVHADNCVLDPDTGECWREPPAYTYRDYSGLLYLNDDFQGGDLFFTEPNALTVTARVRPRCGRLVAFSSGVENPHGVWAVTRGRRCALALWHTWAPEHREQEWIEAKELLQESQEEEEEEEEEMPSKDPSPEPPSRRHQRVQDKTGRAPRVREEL
UniProt Q9BRQ3: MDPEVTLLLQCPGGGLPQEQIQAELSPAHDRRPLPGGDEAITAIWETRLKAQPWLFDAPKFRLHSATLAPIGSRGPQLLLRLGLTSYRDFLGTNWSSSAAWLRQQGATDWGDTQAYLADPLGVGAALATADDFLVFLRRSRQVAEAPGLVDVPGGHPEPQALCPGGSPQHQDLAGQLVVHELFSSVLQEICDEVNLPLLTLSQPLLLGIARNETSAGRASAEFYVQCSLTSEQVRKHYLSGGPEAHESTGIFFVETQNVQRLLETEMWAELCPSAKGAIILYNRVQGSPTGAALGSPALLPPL
UniProt P47900: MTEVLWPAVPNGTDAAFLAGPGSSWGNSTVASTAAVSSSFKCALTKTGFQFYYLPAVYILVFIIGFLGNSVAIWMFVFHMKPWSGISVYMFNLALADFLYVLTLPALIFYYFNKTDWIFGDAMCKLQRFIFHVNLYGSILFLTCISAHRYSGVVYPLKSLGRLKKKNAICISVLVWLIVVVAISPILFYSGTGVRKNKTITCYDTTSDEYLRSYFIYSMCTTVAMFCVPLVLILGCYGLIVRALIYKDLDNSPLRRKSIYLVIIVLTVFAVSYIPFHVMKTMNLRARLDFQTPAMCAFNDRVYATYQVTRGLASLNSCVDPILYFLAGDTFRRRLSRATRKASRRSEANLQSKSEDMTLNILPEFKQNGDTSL

crizotinib = compound: C[C@@H](Oc1cc(-c2cnn(C3CCNCC3)c2)cnc1N)c1c(Cl)ccc(F)c1Cl [crizotinib]
Outline: as §1

[2] = compound: C[C@@H]1COCCN1C2=NC(=NC(=C2)C3(CC3)S(=O)(=O)C)C4=C5C=CNC5=CC=C4
Outline: as §1

[3] = compound: C[C@H](C1=CC=C(C=C1)C(=O)NC2=C3C=CNC3=NC=C2)N
Outline: as §1

gandotinib = compound: Cc1cc(Nc2cc(CN3CCOCC3)c3nc(C)c(Cc4ccc(Cl)cc4F)n3n2)n[nH]1 [gandotinib]
Outline: as §1

[4] = compound: Cc1cc(SCc2sc(-c3ccc(C(F)(F)F)cc3)nc2C)ccc1OCC(=O)O
Outline: as §1

doramapimod = compound: Cc1ccc(-n2nc(C(C)(C)C)cc2NC(=O)Nc2ccc(OCCN3CCOCC3)c3ccccc23)cc1 [doramapimod]
Outline: as §1

ispinesib = compound: Cc1ccc(C(=O)N(CCCN)[C@@H](c2nc3cc(Cl)ccc3c(=O)n2Cc2ccccc2)C(C)C)cc1 [ispinesib]
Outline: as §1

duvelisib = compound: C[C@H](Nc1ncnc2nc[nH]c12)c1cc2cccc(Cl)c2c(=O)n1-c1ccccc1 [duvelisib]
Outline: as §1

tozasertib = compound: Cc1cc(Nc2cc(N3CCN(C)CC3)nc(Sc3ccc(NC(=O)C4CC4)cc3)n2)n[nH]1 [tozasertib]
Outline: as §1

Measured: log2 fold change

NUDCD2 (UniProt Q8WVJ2)
inactive: [1] 0.049 | crizotinib -0.02 | [2] 0.1 | [3] -0.077 | gandotinib -0.042 | [4] 0.073 | doramapimod -0.049 | ispinesib -0.12

NTMT1 (UniProt Q9BV86)
inactive: [1] 0.128 | crizotinib 0.039 | [2] 0.074 | [3] -0.029 | gandotinib 0.093 | [4] 0.021 | doramapimod 0.071 | ispinesib 0.02

OAS3 (UniProt Q9Y6K5)
inactive: [1] -0.114 | crizotinib 0.044 | duvelisib 0.099 | [4] -0.044 | doramapimod 0.069 | ispinesib -0.216

ODC1 (UniProt P11926)
inactive: crizotinib -0.045 | duvelisib 0.205 | [4] 0.087 | doramapimod 0.082

ODF2 (UniProt Q5BJF6)
inactive: [2] -0.108 | gandotinib 0.004

NUMB (UniProt P49757)
inactive: [1] 0.056 | crizotinib -0.189 | [2] 0.07 | [3] -0.068 | gandotinib -0.06 | [4] 0.006 | doramapimod -0.012 | ispinesib -0.073

ODF2L isoform 4 (UniProt Q9ULJ1)
inactive: crizotinib 0.242 | doramapimod -0.045

ORC5 (UniProt O43913)
active: crizotinib -0.766
inactive: [1] 0.166 | [3] 0.008 | gandotinib -0.226 | [4] 0.135 | doramapimod -0.104 | ispinesib -0.152

OSBPL6 isoform 5 (UniProt Q9BZF3)
inactive: [1] -0.195 | crizotinib 0.428 | [2] -1.43 | doramapimod 0.165 | ispinesib -0.373

NSUN7 (UniProt Q8NE18)
inactive: crizotinib 0.093 | [2] 0.288 | [3] 0.168 | gandotinib -0.034 | tozasertib -0.042 | doramapimod -0.014 | ispinesib -0.03

ORMDL1 (UniProt Q9P0S3)
inactive: [1] 0.034 | crizotinib -0.13 | [2] 0.211 | tozasertib -0.19 | doramapimod -0.002

OGFOD3 (UniProt Q6PK18)
inactive: ispinesib 0.415

2 consecutive records out of the list so far, for reference:
OSBPL6 isoform 5 (UniProt Q9BZF3)
inactive: [1] -0.195 | crizotinib 0.428 | [2] -1.43 | doramapimod 0.165 | ispinesib -0.373

NSUN7 (UniProt Q8NE18)
inactive: crizotinib 0.093 | [2] 0.288 | [3] 0.168 | gandotinib -0.034 | tozasertib -0.042 | doramapimod -0.014 | ispinesib -0.03

(continued)

NVL (UniProt O15381)
inactive: gandotinib 0.259 | ispinesib -0.101

NUDT8 (UniProt Q8WV74)
inactive: [1] 0.072 | crizotinib 0.061 | [3] -0.069 | duvelisib -0.203 | tozasertib -0.289 | [4] 0.028 | doramapimod -0.029 | ispinesib -0.076

OGFR (UniProt Q9NZT2)
inactive: [1] 0.074 | crizotinib -0.067 | [2] 0.034 | [3] 0.19 | gandotinib -0.058 | [4] 0.133 | doramapimod 0.082 | ispinesib -0.068

OSGEPL1 (UniProt Q9H4B0)
inactive: [1] 0.136 | crizotinib -0.098 | [3] 0.096 | duvelisib 0.111 | gandotinib 0.227 | [4] -0.047 | doramapimod 0.039

NT5C3B (UniProt Q969T7)
inactive: [1] -0.11 | crizotinib -0.035 | [3] 0.005 | duvelisib -0.037 | gandotinib 0.025 | tozasertib 0.098 | [4] -0.009 | doramapimod 0.035 | ispinesib 0.055

NUP85 (UniProt Q9BW27)
inactive: [1] 0.022 | crizotinib -0.007 | [2] 0.049 | [3] -0.088 | gandotinib -0.107 | [4] 0.026 | doramapimod -0.021 | ispinesib 0.015

ORC6 (UniProt Q9Y5N6)
inactive: [1] 0.023 | crizotinib -0.043 | [2] -0.046 | doramapimod 0.067 | ispinesib -0.033

OPA3 isoform 2 (UniProt Q9H6K4)
inactive: [3] -0.1 | duvelisib -0.044 | [4] 0.025 | ispinesib 0.352

NUDT1 (UniProt P36639)
inactive: [1] 0.185 | [2] 0.08 | [3] 0.107 | gandotinib -0.167 | [4] 0.017 | doramapimod -0.113 | ispinesib 0.012

OGFOD2 (UniProt Q6N063)
inactive: crizotinib 0.04 | [2] 0.042 | [3] -0.058 | gandotinib 0.278 | [4] 0.034 | doramapimod 0.042 | ispinesib -0.032

ORAI1 (UniProt Q96D31)
inactive: crizotinib 0.073 | [2] -0.051 | tozasertib -0.23 | doramapimod -0.033 | ispinesib -0.117

OSBPL3 (UniProt Q9H4L5)
inactive: [1] 0.245 | crizotinib -0.017 | [2] -0.416 | [3] 0.572 | [4] 0.063 | doramapimod 0.189 | ispinesib -0.36

OSBPL2 (UniProt Q9H1P3)
inactive: [3] 0.124

OVCA2 (UniProt Q8WZ82)
inactive: crizotinib 0.064 | gandotinib -0.232 | doramapimod -0.186 | ispinesib 0.026

OAF (UniProt Q86UD1)
inactive: [1] -0.112 | ispinesib 0.014

NUDT7 (UniProt P0C024)
inactive: [1] 0.03 | crizotinib 0.004 | [2] 0.248 | gandotinib -0.23 | doramapimod 0.011 | ispinesib -0.157

NUDT17 (UniProt P0C025)
inactive: [1] -0.434 | [2] -0.016 | [3] -0.327 | tozasertib 0.131 | ispinesib 0.125

ORC2 (UniProt Q13416)
inactive: [1] 0.035 | crizotinib -0.018 | [2] 0.09 | gandotinib -0.156 | tozasertib -0.089 | doramapimod 0.314 | ispinesib -0.155

NUF2 (UniProt Q9BZD4)
inactive: crizotinib -0.287 | [2] -0.246 | [3] 0.33 | duvelisib -0.176 | gandotinib 0.059 | [4] 0.244 | doramapimod 0.27

NUDT6 (UniProt P53370)
inactive: crizotinib 0.069 | [2] 0.122 | [3] 0.6 | [4] -0.094 | doramapimod -0.127 | ispinesib -0.097

NXF1 (UniProt Q9UBU9)
inactive: crizotinib -0.116 | gandotinib -0.101 | tozasertib 0.256 | doramapimod 0.058 | ispinesib -0.017

P3H3 (UniProt Q8IVL6)
inactive: [2] -0.164 | tozasertib -0.361

NUDT22 (UniProt Q9BRQ3)
inactive: duvelisib -0.05 | [4] 0.186

P2RY1 (UniProt P47900)
inactive: [2] -0.005 | duvelisib 0.027 | gandotinib 0.038 | [4] -0.162

PABPC1 (UniProt H0YAR2)
inactive: [1] -0.024 | crizotinib -0.022 | doramapimod -0.028 | ispinesib 0.204

PABPC1 (UniProt E5RJM8)
inactive: [1] 0.144 | crizotinib -0.263 | doramapimod -0.027

OXR1 isoform 2 (UniProt Q8N573)
inactive: crizotinib -0.027 | [2] 0.187 | [3] -0.105 | gandotinib -0.225 | [4] 0.043 | doramapimod 0.022 | ispinesib -0.134
